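Vaccinia-infected cells with a two-color viral stage reporter; Venus fluorescence read on a plate reader; the cell line is not named here; timing not stated here. The test concentration is not given here. Percent change in Venus reporter signal; lower (more negative) values mean stronger inhibition of that viral stage.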

Values are in %. The controls that fix the scale are not given here. Common to all entries: measured here: Venus reporter, other viral stage. This is a side read-out of the assay, for part of the compounds, not drawn at random.

structure,activity change (Venus) (%)
Cc1noc(C)c1NC(=O)N(C)C[C@H]1Oc2ncc(/C=C/c3ccccc3)cc2C(=O)N([C@H](C)CO)C[C@@H]1C,-23.38
COc1ccc(S(=O)(=O)N(C)C[C@@H]2Oc3ncc(C#Cc4ccc(C(F)(F)F)cc4)cc3C(=O)N([C@H](C)CO)C[C@@H]2C)cc1,-37.33
COc1ccc(C#Cc2ccc([C@@H]3[C@@H](CO)N4CCCCN(C(=O)Nc5cccc(F)c5)C[C@@H]34)cc2)cc1,-28.71
COc1ccccc1C(=O)Nc1ccc2c(c1)C(=O)N(C)[C@@H]1CC[C@H](CC(=O)NCc3ccc(Cl)c(Cl)c3)O[C@@H]1CO2,-33.04
C[C@@H]1CCCCO[C@H](CN(C)Cc2ccc(C(F)(F)F)cc2)[C@H](C)CN([C@@H](C)CO)C(=O)c2cc(NS(=O)(=O)c3ccc(F)cc3)ccc2O1,-69.32
C[C@@H]1CCCCO[C@@H](CN(C)Cc2ccc3c(c2)OCO3)[C@H](C)CN([C@@H](C)CO)C(=O)c2cc(NC(=O)Nc3ccc(C(F)(F)F)cc3)ccc2O1,-31.26
C[C@@H]1CN([C@H](C)CO)C(=O)c2cc(C#CC3CCCCC3)cnc2O[C@H]1CN(C)S(=O)(=O)c1cccc(F)c1,-26.85
O=C(C[C@@H]1CC[C@H]2[C@@H](COC[C@H](O)CN2S(=O)(=O)c2ccccc2)O1)Nc1ccc(-c2ccccc2)cc1,-39.86
COc1ccc2c3c([nH]c2c1)[C@H](CO)N(C(=O)Nc1ccc(F)cc1)CC31CCN(Cc2cc(F)ccc2F)CC1,-57.15
C[C@H]1CN([C@@H](C)CO)C(=O)c2cc(NC(=O)C3CCCCC3)ccc2O[C@@H]1CN(C)Cc1ccc(C(F)(F)F)cc1,-43.06
C[C@@H]1CN([C@H](C)CO)C(=O)Cc2cc(NS(=O)(=O)c3cccs3)ccc2O[C@@H]1CN(C)Cc1ccc(-c2ccccc2)cc1,-36.52
C[C@@H]1CN([C@H](C)CO)S(=O)(=O)c2ccc(Br)cc2O[C@H]1CN(C)Cc1ccccc1,-62.48
Cc1ccc(S(=O)(=O)N[C@H]2CC[C@H](CCn3cc(-c4ccccc4F)nn3)O[C@@H]2CO)cc1,-28.82
COc1ccc2c3c([nH]c2c1)[C@H](CO)N(C(=O)Cc1ccccc1)CC31CCN(C(=O)Nc2ccccc2F)CC1,-55.2
CC(C)c1ccc(NC(=O)C[C@H]2CC[C@H]3[C@@H](COc4ccc(NC(=O)Nc5ccc(F)c(F)c5)cc4C(=O)N3C)O2)cc1,-24.82
COc1ccc([Si](C)(C)[C@H]2[C@H](CCn3cc(CCO)nn3)O[C@@]3(C(=O)N(Cc4cccc(N5CCOC5=O)c4)c4ccccc43)[C@@H]2C)cc1,-44.43
O=C(Cc1ccccc1)N1CCCCN2[C@@H](CO)[C@@H](c3ccc(-c4ccccc4)cc3)[C@@H]2C1,-33.98
C[C@@H]1CN([C@@H](C)CO)C(=O)c2cc(NS(=O)(=O)c3ccccc3)ccc2O[C@@H]1CN(C)Cc1ccc(Oc2ccccc2)cc1,-36.79
C[C@H](C(=O)N(C)C[C@@H]1OCc2ccccc2-c2c(n(C)c3ccccc23)C(=O)N([C@H](C)CO)C[C@H]1C)c1ccccc1,-39.26
C[C@H](CO)N1C[C@H](C)[C@@H](CN(C)Cc2ccc3c(c2)OCO3)Oc2ccc(NC(=O)Nc3ccccc3)cc2CC1=O,-30.75
O=C(c1ccc2c(c1)OCO2)N1CC(=O)N2[C@H](C1)[C@@H](c1ccc(C#Cc3ccccc3)cc1)[C@@H]2CO,-49.7
C[C@H](CO)N1C[C@H](C)[C@H](CN(C)Cc2ccccc2)OCCCC[C@H](C)Oc2ccc(NC(=O)CCC(F)(F)F)cc2C1=O,-31.22
C[C@H]1CN([C@@H](C)CO)C(=O)c2cccc(NC(=O)Nc3ccc(C(F)(F)F)cc3)c2O[C@H]1CN(C)S(=O)(=O)c1cccs1,-59.11
C[C@@H]1CN([C@@H](C)CO)S(=O)(=O)c2ccc(-c3cccc(F)c3)cc2O[C@H]1CN(C)S(=O)(=O)c1ccccc1,-33.98
CC(C)C#Cc1ccc([C@@H]2[C@@H](CO)N3C(=O)CN(S(=O)(=O)c4ccccc4)C[C@@H]23)cc1,-42.77
Cc1ccc(S(=O)(=O)N(C)C[C@H]2OCCCC[C@@H](C)Oc3ccc(NS(=O)(=O)c4ccc(Cl)cc4)cc3C(=O)N([C@@H](C)CO)C[C@H]2C)cc1,-32.11
C[C@H]1CN([C@@H](C)CO)C(=O)c2c(c3ccccc3n2C)-c2ccccc2CO[C@@H]1CN(C)C(=O)Nc1ccc2c(c1)OCO2,-35.71
C[C@@H]1CN([C@@H](C)CO)C(=O)c2cc(NS(=O)(=O)c3ccccc3)ccc2O[C@@H](C)CCCCO[C@H]1CN(C)Cc1ccc(C(F)(F)F)cc1,-49.98
C[C@H]1CN([C@@H](C)CO)S(=O)(=O)c2ccc(-c3cccc(F)c3)cc2O[C@@H]1CN(C)S(=O)(=O)c1ccccc1,-45.35
C[C@@H]1CN([C@@H](C)CO)S(=O)(=O)c2ccc(C3=CCCCC3)cc2O[C@H]1CN(C)C(=O)c1ccccc1,-39.43
COc1ccc(CN(C)C[C@H]2OCCCC[C@H](C)Oc3ccc(NC(=O)Nc4ccc5c(c4)OCO5)cc3C(=O)N([C@H](C)CO)C[C@H]2C)cc1,-38.33

Some entries from above, unchanged:

| structure | activity change (Venus) (%) |
|---|---|
| `CC(C)C#Cc1ccc([C@@H]2[C@@H](CO)N3C(=O)CN(S(=O)(=O)c4ccccc4)C[C@@H]23)cc1` | -42.77 |
| `C[C@@H]1CN([C@@H](C)CO)C(=O)c2cc(NS(=O)(=O)c3ccccc3)ccc2O[C@@H](C)CCCCO[C@H]1CN(C)Cc1ccc(C(F)(F)F)cc1` | -49.98 |
| `O=C(C[C@@H]1CC[C@H]2[C@@H](COC[C@H](O)CN2S(=O)(=O)c2ccccc2)O1)Nc1ccc(-c2ccccc2)cc1` | -39.86 |

From PubChem BioAssay record AID1053133 (Broad Institute, 2014).